Values quoted from earlier work, collected in patent US9950023B1, “Composition for the treatment of acne” (Parham Tabibian, MD, Inc., priority 2014, dated 2018).
Some of these results come from one statement about several compounds together.

Tested on: biofilm-associated P. acnes
Conditions: in vitro; concentrations as given in the label

SMILES: Oc1cc(Cl)ccc1Oc1ccc(Cl)cc1Cl [0.1% triclosan, triclosan]
- killing of biofilm-associated P. acnes: > 99%
